Results reported in paper PMC7819943, “Rice protein-binding microarrays: a tool to detect cis-acting elements near promoter regions in rice”.
The list shows a part of the results.

By UniProt entry, the sequences of proteins in these tests, tags left out.
UniProt Q0JBA9, entry or part of it: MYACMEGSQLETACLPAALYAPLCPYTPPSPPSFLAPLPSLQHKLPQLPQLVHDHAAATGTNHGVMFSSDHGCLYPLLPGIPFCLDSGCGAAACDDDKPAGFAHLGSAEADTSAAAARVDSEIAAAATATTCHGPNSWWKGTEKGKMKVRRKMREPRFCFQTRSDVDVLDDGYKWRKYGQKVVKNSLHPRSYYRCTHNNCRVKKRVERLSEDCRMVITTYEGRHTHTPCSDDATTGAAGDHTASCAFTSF

Each sequence was assayed against OsWRKY34 (Oryza sativa, UniProt Q0JBA9 1-250) (assay: protein-binding microarray (RPBM); PBS, 2% BSA, 51.3 ng/ul salmon testes DNA, 50 uM zinc acetate, 200 nM TF, 25 C, 1 h; high values mean tight binding). Conditions: protein: recombinant; tags: N-terminal polyhistidine and DsRed monomer fusion (pET32a); label: CyDye5-dUTP incorporated in the synthesized complementary strand; 3' TTTTT single-stranded linker to array surface; dsDNA, one strand shown.
In short: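 An Axon 4000B scanner gave the binding signal as per-feature fluorescence intensity in arbitrary units. This followed washing of a custom Agilent array that had been incubated for 1 h at 25 °C with 200 nM protein in PBS, 2% BSA, salmon testes DNA and 50 µM zinc acetate. The proteins were transcription factors fused at the N-terminus to polyhistidine and DsRed, expressed in E. coli BL21-CodonPlus and purified on Ni–NTA.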

Sequence	binding signal
TCTATCTCCTTTTATCTATATATCTCATTCATTTTTGGTTCGGAGTCACCTAGTGCAG	11000 fluorescence intensity (a.u.)
GCTCCACGTCCCACCGCCCTTGTTGCCTGTCGGTTGCTCGCGGAGTCACCTAGTGCAG	11700 fluorescence intensity (a.u.)
TGTCACTGAAACACTTCACCGGATTATTTACTCCACGTCTCGGAGTCACCTAGTGCAG	11700 fluorescence intensity (a.u.)
CGAATGGTCAAACATATGAGAAAAAGTCAACGATGTCATCCGGAGTCACCTAGTGCAG	13900 fluorescence intensity (a.u.)
CCCGCACGAACTCCACAGATATTTCACGGCTTTTCCCCGTCGGAGTCACCTAGTGCAG	11900 fluorescence intensity (a.u.)
ATTTTGTTTACCTTATGTGTTTTTCTATTTATCTCGAATTCGGAGTCACCTAGTGCAG	9950 fluorescence intensity (a.u.)
GTCTGTTCACTTTGATGCCAAAATTTTGACAGGATTTCTTCGGAGTCACCTAGTGCAG	8180 fluorescence intensity (a.u.)
GTCAGTACACACACGCACAAATCATGAATCTATCATTACTCGGAGTCACCTAGTGCAG	8780 fluorescence intensity (a.u.)
AGAAAGCCTCATCTCCGGCCCCTCTTCCTCCTTGATTCCGCGGAGTCACCTAGTGCAG	9330 fluorescence intensity (a.u.)
TTTTTTTTTTTGTCGCCGAGTATTCGTCGTCCCCGACGACCGGAGTCACCTAGTGCAG	8280 fluorescence intensity (a.u.)
CAACCAAACCCGCCGCTGTATAAATCCGCTCCCATCCGCTCGGAGTCACCTAGTGCAG	8880 fluorescence intensity (a.u.)
TGGTTCAACACCATCGCTGCACATCTTTTCCAAAATTCCACGGAGTCACCTAGTGCAG	8760 fluorescence intensity (a.u.)
TCGCTCTCTCCACATCGGTCGTGCGGTCGTGCCGCCATCACGGAGTCACCTAGTGCAG	8670 fluorescence intensity (a.u.)
CTTTCTTGCGTAGGTAATCAACCATCATATTTTTTTTCTTCGGAGTCACCTAGTGCAG	8760 fluorescence intensity (a.u.)
TCATTTTCGGTTGTCCACTATTTGGCTTTTCTCACTTCCTCGGAGTCACCTAGTGCAG	12700 fluorescence intensity (a.u.)
TAGACTTACTCCAATTTTCTCTGATTTCGGCCCAATTTTGCGGAGTCACCTAGTGCAG	11000 fluorescence intensity (a.u.)
GCTTGGTCCGTCGATCTATCACAATTTCTATTCGACGACGCGGAGTCACCTAGTGCAG	9670 fluorescence intensity (a.u.)
GGGGCTTGATTTGATTTGGGCGCGTCTCGTGGAGTATCCGCGGAGTCACCTAGTGCAG	14800 fluorescence intensity (a.u.)
GTCGATCAATCGCCGCCGCTTTTCGTGCCCACCACTTGCGCGGAGTCACCTAGTGCAG	8740 fluorescence intensity (a.u.)
GCATAGTGAATTCGCTGCTCAGTTCCTATTAGCGGTTATACGGAGTCACCTAGTGCAG	9040 fluorescence intensity (a.u.)
TATGGAATGGGTTTTGTAATTAGTGTATGTTTAATACTCCCGGAGTCACCTAGTGCAG	8810 fluorescence intensity (a.u.)

Some of the entries so far, as a markdown table.

| Sequence | binding signal |
| --- | --- |
| CCCGCACGAACTCCACAGATATTTCACGGCTTTTCCCCGTCGGAGTCACCTAGTGCAG | 11900 fluorescence intensity (a.u.) |
| ATTTTGTTTACCTTATGTGTTTTTCTATTTATCTCGAATTCGGAGTCACCTAGTGCAG | 9950 fluorescence intensity (a.u.) |

Next entries

Sequence	binding signal
TGCTTGCATTCCGGCGAGTCGCCGCGCGCCGGGCCGGCCGCGGAGTCACCTAGTGCAG	8050 fluorescence intensity (a.u.)
GGATTGGGATAGAGAGGATTTCTATGAGTTAATTAACTTACGGAGTCACCTAGTGCAG	8460 fluorescence intensity (a.u.)
TCAGAAATCTTAGTCCTCTTGTTCTTGTTTTCTTCCTTTTCGGAGTCACCTAGTGCAG	9880 fluorescence intensity (a.u.)
TTGGCCAACTATCCGGTAATAAATACTACCTCTGTTATATCGGAGTCACCTAGTGCAG	8250 fluorescence intensity (a.u.)
TGCCACCTTGTCTACTTACCTCATCTCATCTCACACCAAACGGAGTCACCTAGTGCAG	11100 fluorescence intensity (a.u.)
GCAGAGGAATCCGTGGCGATGGGGATGGGGATTCGATGTGCGGAGTCACCTAGTGCAG	8400 fluorescence intensity (a.u.)
ATGGCTGGTTTTCACGACACATAACCAACTACTCCCTCCACGGAGTCACCTAGTGCAG	8040 fluorescence intensity (a.u.)
TCAGGTCACAATATTTTCGCACATTTTGAACTTAACGTTTCGGAGTCACCTAGTGCAG	10100 fluorescence intensity (a.u.)
TCATCTCATCCACTCCTCTCCTCGTACGCCTATAAAATCACGGAGTCACCTAGTGCAG	8180 fluorescence intensity (a.u.)
ACCTACGTCGTGTCCCCAGTTTGCGCTTCTAGCTCCAATACGGAGTCACCTAGTGCAG	8550 fluorescence intensity (a.u.)
ACCTCTTATTTGACTTTTTCACTATTTTGAAATACGAAAACGGAGTCACCTAGTGCAG	9360 fluorescence intensity (a.u.)
CACTCGCATCACACACGCTCTCTCACTCTCACTCTCACTCCGGAGTCACCTAGTGCAG	8580 fluorescence intensity (a.u.)
AGATGTTTTGAGGTCGCCCTTGGGTTTATTTGGCGCCACACGGAGTCACCTAGTGCAG	8060 fluorescence intensity (a.u.)
AACAAACTTCCAACTTTTCCGTCACATCGTTTCAATTTCACGGAGTCACCTAGTGCAG	9480 fluorescence intensity (a.u.)
ACAATGTGACCCTATGTACAATTTACTCATATATTTTTATCGGAGTCACCTAGTGCAG	9570 fluorescence intensity (a.u.)
AATCGCATCGCGCCGCTTTTGCTCCTCCGTCTCTCTCTCGCGGAGTCACCTAGTGCAG	8420 fluorescence intensity (a.u.)
CCACAACCTCTCTCACCACCCTGTCATCTGCACCACTGTCCGGAGTCACCTAGTGCAG	8230 fluorescence intensity (a.u.)
TTTCATATTAATCTATGTTGTCAATTTTTTTCATATTTTTCGGAGTCACCTAGTGCAG	9540 fluorescence intensity (a.u.)
ATTGAGACCACTTGTTCTGTGCCACTTCCATTTCATGTACCGGAGTCACCTAGTGCAG	9240 fluorescence intensity (a.u.)
TCCACATGTCTATCTTACATATTTTCTTGGTTCCTGTGCTCGGAGTCACCTAGTGCAG	10000 fluorescence intensity (a.u.)
GGTTTGTTTGACCCAACACTGTTTTTCCGGAATCCAGGTGCGGAGTCACCTAGTGCAG	8280 fluorescence intensity (a.u.)
